Results on one substance are retold here after PMC5762634.

The chains behind the UniProt entries cited, without tags or fusion partners. Residues count along the entry.
UniProt P51858, residues 1-100: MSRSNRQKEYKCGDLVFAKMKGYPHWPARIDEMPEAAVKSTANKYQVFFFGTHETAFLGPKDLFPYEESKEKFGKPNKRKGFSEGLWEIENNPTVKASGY
UniProt P19338: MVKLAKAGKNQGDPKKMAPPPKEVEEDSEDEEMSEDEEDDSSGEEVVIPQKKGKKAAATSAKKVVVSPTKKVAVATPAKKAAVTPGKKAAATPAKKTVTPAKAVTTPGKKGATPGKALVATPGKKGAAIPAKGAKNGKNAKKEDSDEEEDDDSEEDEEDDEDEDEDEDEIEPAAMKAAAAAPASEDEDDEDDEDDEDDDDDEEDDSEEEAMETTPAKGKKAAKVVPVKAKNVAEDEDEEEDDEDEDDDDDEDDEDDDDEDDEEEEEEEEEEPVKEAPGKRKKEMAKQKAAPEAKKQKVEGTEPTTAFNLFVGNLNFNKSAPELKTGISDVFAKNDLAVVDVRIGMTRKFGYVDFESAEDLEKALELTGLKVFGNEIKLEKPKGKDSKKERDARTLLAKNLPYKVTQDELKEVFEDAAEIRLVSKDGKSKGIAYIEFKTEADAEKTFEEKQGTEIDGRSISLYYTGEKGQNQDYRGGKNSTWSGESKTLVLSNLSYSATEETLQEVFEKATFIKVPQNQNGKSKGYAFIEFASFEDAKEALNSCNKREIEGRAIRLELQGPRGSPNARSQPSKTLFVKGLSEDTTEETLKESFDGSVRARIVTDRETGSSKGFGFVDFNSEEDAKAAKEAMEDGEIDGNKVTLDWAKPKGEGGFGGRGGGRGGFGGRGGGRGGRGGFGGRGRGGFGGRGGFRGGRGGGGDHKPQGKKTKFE

Test [1] addresses human HDGF PWWP domain (residues 1-100) (human) (UniProt P51858). As to the kind of experiment: condition: only initial concentration of less than ~1.5 mg/mL; SEC; Superdex-200; apo PWWP domain at an initial concentration of less than ~1.5 mg/mL; 20 mM Tris-HCl, 5 mM EDTA, 5 mM beta-ME, pH 7.5; both purified.
Test [2] has the same target. Nature of the test: condition: only monomeric PWWP domain incubated 1:1 with 5-bp SMYD1 DNA; SEC; Superdex-200, size calibration; monomeric PWWP domain incubated 1:1 with 5-bp SMYD1 DNA at 4 °C overnight; 20 mM Tris-HCl, 5 mM EDTA, 5 mM beta-ME, pH 7.5; both purified.
For test [3], the target named is human nucleolin (NCL) (human) (UniProt P19338). As to the kind of experiment: ELISA; solid-phase binding assay; NCL coated at 10 µg/mL, 4 °C overnight; HDGF or PWWP domain (apo or as complex with 15-bp SMYD1 DNA) reacted at 25 °C for 1.5 h; detected with a PWWP-specific antibody and an HRP-conjugated antibody, OD 450 nm; both purified.

Results are given in words; binding and its absence hold for the method and conditions named. Some entries that bind do so weakly or less than the wild type.

“human HDGF PWWP domain (residues 1-100) (from UniProt P51858 1-100) (domain or fragment)”: the results for the binding entry in test [1], in test [2] and in test [3] were “no binding”, “no binding” and “binds”, respectively.
